# Out of some 330,000 compounds screened, about 7,700 (2.3%) were called active. Inconclusive results, whose numbers are uncertain, are shown with a selection of clear calls. Calls come from the whole dose curve; as a rule, active = well fitted inhibition curve with a large enough effect; inconclusive = small, poorly fitted or top-dose-only effect, or effect the other way; inactive = flat fitted curve, though single readings scatter. Potencies of inconclusive entries are doubtful fits and often do not repeat.
# Assay: qHTS screen for small molecules that inhibit ELG1-dependent DNA repair in human embryonic kidney (HEK293T) cells expressing luciferase-tagged ELG1; note: nearly all actives have a fitted effect of over 55% in size
# Settings: HEK293T ELG1-luciferase reporter, luminescence, 16 h, DNA damage induced by 5-fluorouridine; series mostly up to 46.1 µM
# Procedure, shortened: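 Quantitative HTS, concentration-response format. 2,000 cells/well co-treated with 5-fluorouridine and compound, 16 hr in 5% CO2 at 37 °C; ONE-Glo luminescence read after 30 min.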
# Potency is the fitted concentration of half-maximal effect.
row,Compound,Potency
1,Cc1ccc(C(=O)Nc2ccc3c(c2)OCCO3)c(C)c1,"inconclusive: 0.326 µM [activator, partial curve, poor fit]"
2,O=C(NNC(=S)NC(=O)c1ccccc1)c1ccc(O)cc1,inactive
3,CN(CC(=O)Nc1ccccc1Cl)C(=O)Cn1nnc(-c2ccc(F)cc2)n1,inactive
4,CC(=O)N1c2ccc(S(=O)(=O)N3CCC(C(=O)NCc4ccc(F)cc4)CC3)cc2CC1C (stereo unspecified),"inconclusive: 18.3 µM [inhibitor, partial curve, poor fit]"
5,Cc1ccccc1CN1CCN(C(=O)c2cc(-c3ccncc3)nc3ccccc23)CC1,inactive
6,CN(C)CCN(C(=O)C1CCN(S(=O)(=O)c2cccs2)CC1)c1nc2c(F)cccc2s1,"inconclusive: 25.9 µM [activator, single point]"
7,CC(C)(C)C(CO)NC(=O)c1ccc[nH]1 (stereo unspecified),inactive
8,Cc1c(NCc2nc3ccccc3[nH]2)c(=O)n(-c2ccccc2)n1C,inactive
9,O=C(Nc1ccccc1)O/N=C/c1ccccc1Cl,"inconclusive: 32.6 µM [activator, partial curve, poor fit]"
10,C[C@H](NC(=O)C1CC(=O)N(c2ccc3c(c2)OCCO3)C1)C(=O)N1CCC(C(=O)O)CC1 (stereo partly specified),"inconclusive: 16.4 µM [activator, partial curve, poor fit]"
11,COC(=O)CC1C(=O)NCCN1C(=O)c1ccc(Cl)cc1 (stereo unspecified),inactive
12,COc1ccc(N2CCN(c3oc(-c4ccc(OC)c(OC)c4)nc3C#N)CC2)cc1,inactive
13,Cc1ccc(NC(=O)CSc2nnc(COc3ccc(C#N)cc3)n2-c2ccccc2)cc1C,active: 23.1 µM
14,O=C(O)c1ccc(/C=C2/SC(=S)N(Cc3ccccc3)C2=O)cc1,inactive
15,Cn1c(/C=C/c2ccc(Cl)cc2)nc2ccccc2c1=O,"inconclusive: 20.6 µM [activator, partial curve]"
16,CCCCCCCc1c(C#N)c(N)[nH]c(=S)c1C#N,"inconclusive: 4.11 µM [inhibitor, full curve]"
17,S=C(Nc1ccc(Cl)c(Cl)c1)N1CCN(c2ccccn2)CC1,inactive
18,COc1cccc(-c2nnc3sc(C4CCCCC4)nn23)c1,active: 4.61 µM
19,COc1ccc(S(=O)(=O)Nc2ccc(Cl)cn2)c(C)c1C,"inconclusive: 20.6 µM [inhibitor, single point]"
20,COc1cc(C(C)=O)ccc1OCC(=O)Nc1ccc(C)c(S(=O)(=O)N2CCCCCC2)c1,"inconclusive: 10.3 µM [inhibitor, partial curve, poor fit]"
21,Cc1csc(NC(=O)c2cc3c(s2)CCCC3)n1,"inconclusive: 0.651 µM [activator, partial curve]"

# 2 entries picked at random from the list so far:
row,Compound,Potency
15,Cn1c(/C=C/c2ccc(Cl)cc2)nc2ccccc2c1=O,"inconclusive: 20.6 µM [activator, partial curve]"
11,COC(=O)CC1C(=O)NCCN1C(=O)c1ccc(Cl)cc1 (stereo unspecified),inactive
